# Data reported in PubChem BioAssay AID2685 (National Center for Advancing Translational Sciences (NCATS), 2010).
# The other results are listed elsewhere or left out. Further columns of the screen follow, without active or inactive calls. The list favours compounds with an active or inconclusive main result. Potencies come from curve fits of mixed quality, noted in brackets.
# Assay: qHTS Assay for Lipid Storage Modulators in Drosophila S3 Cells;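 for cell number change: cells counted by Cell Tracker Red CMTPX staining in the red channel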
# Settings: BODIPY lipid droplet fluorescence, 18-24 h; for cell number change: measured here: cell count max response, cells fed with added oleic acid
# Method in brief: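 Drosophila S3 cells loaded with oleic acid (400 uM, as added) and compounds at several concentrations; lipid droplets imaged by 488-nm laser-scanning cytometry, 500–530 nm intensity and object ratio to cell channel. Percent activity normalized to 20 uM Triacsin C.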
# [1] = measured here: lipid fluorescence (Fed channel) AC50, cells fed with added oleic acid
# [2] = measured here: cell number channel AC50, cells fed with added oleic acid
SMILES,AC50 [1],cell number change,AC50 [2]
O=C(CCSCCC(=O)NCc1ccc(F)cc1)NCc1ccc(F)cc1,"3.26 µM [rising, full curve]",,
CCCNC(=O)N1CCC(c2nc3ccccc3s2)CC1,"1.64 µM [rising, full curve, poor fit]",20.2%,
O=C(CSc1nnc(-c2cccnc2)n1CCc1ccccc1)N1CCCCC1,"2.59 µM [rising, full curve, poor fit]",4.23%,
Cc1ccc(NC(=O)c2ccc(NS(=O)(=O)c3c(C)noc3C)cc2)cc1C,"7.31 µM [falling, partial curve, poor fit]",-15.8%,
Cc1ccc(C(C(=O)NC2CCCCC2)N(C(=O)c2csnn2)c2ccccc2F)o1 (configuration not stated),,4.62%,
CCOc1ccc(-n2cc(-c3ccccc3)c3c(=S)nc[nH]c32)cc1,"0.13 µM [rising, full curve, poor fit]",,
CSCc1c(C(=O)Nc2ccc(N3CCOCC3)cc2)oc2ccccc12,"0.58 µM [rising, single point]",113%,"29.1 µM [rising, single point]"
OCC#CCSc1nnc(-c2ccncc2)o1,,,"0.013 µM [rising, full curve, poor fit]"
Cc1nc2ncnn2c(C)c1CCC(=O)N1CCCCC1,"1.84 µM [falling, partial curve]",-9.38%,"0.92 µM [falling, partial curve]"
COc1ccc(CCNC(=O)CS(=O)(=O)Cc2nc(-c3ccc(C)cc3)oc2C)cc1OC,"11.6 µM [rising, partial curve]",2.42%,
CC(=O)Oc1ccc(-c2cccc(C(=O)N(C)c3ccc(O)cc3)c2)cc1,"6.51 µM [rising, single point]",31.6%,"4.11 µM [rising, single point]"
Cc1ccc(-n2nnc3c(=O)n(CC(=O)c4ccccc4)cnc32)cc1,"0.731 µM [falling, full curve, poor fit]",11.5%,
CCc1nn(C(CC)C(=O)NCc2cccc(OC)c2OC)c(=O)c2cc3occc3n12 (configuration not stated),"8.2 µM [falling, partial curve]",,
NC(=O)CC(NC(=O)Cc1cccc2ccccc12)c1ccc(N2CCN(c3ccccn3)CC2)c([N+](=O)[O-])c1 (configuration not stated),"29.1 µM [falling, single point]",-29.6%,
C=CCN1C(=O)C(CC(=O)O)SC1=Nc1c(C)n(C)n(-c2ccccc2)c1=O (configuration not stated),"29.1 µM [rising, single point]",0.361%,
Cc1cccc(/C=C2\Sc3ccc(C(=O)N4CCC(C(N)=O)CC4)cc3N(C)C2=O)c1,,0.943%,

SMILES,AC50 [1],cell number change,AC50 [2]
O=C(c1ccc2c(=O)n(Cc3ccco3)c(=S)[nH]c2c1)N1CCN(Cc2ccccc2)CC1,,5.48%,
C/C(=N\NC(=O)COc1ccccc1[N+](=O)[O-])c1cccc(NC(=O)c2ccncc2)c1,"10.3 µM [falling, partial curve]",-46.1%,"13 µM [falling, partial curve]"
CCOC(=O)C1=C(O)C(=O)N(Cc2cccnc2)C1c1ccc(C)cc1 (configuration not stated),"29.1 µM [rising, single point]",95.1%,"29.1 µM [rising, single point]"
O=c1oc2ccccc2cc1-c1nnc(-c2cccc(Br)c2)o1,,-1.42%,
N#CC1=C(SCC(=O)Nc2ccccc2)NC(=O)CC1c1ccc(O)cc1 (configuration not stated),"16.4 µM [rising, partial curve]",15.9%,
CCOC(=O)c1cc2c(=O)n3cc(C)ccc3nc2n(Cc2cccnc2)c1=N,"1.3 µM [rising, partial curve]",8.36%,
N/C(=N\OC(=O)c1ccc(Cl)c(Cl)c1)c1cccnc1,,-46.9%,"25.9 µM [falling, single point]"
COCc1nc(-c2ccc(-c3ccccc3)nc2OC)no1,"10.3 µM [falling, partial curve, poor fit]",,
O=[N+]([O-])c1ccccc1S(=O)(=O)Nc1ccn(Cc2c(F)cccc2Cl)n1,"29.1 µM [rising, single point]",-8.42%,
N#Cc1c(N)c(C#N)c(-c2ccc(O)cc2)c2c1CCCC2,"0.259 µM [falling, partial curve, poor fit]",-21.3%,
COc1ccccc1N1CCN(c2nc3ccccn3c(=O)c2C=O)CC1,,,"0.146 µM [rising, full curve, poor fit]"
COc1ccc(C(=O)Nc2ccc3c(c2)OCCO3)cc1[N+](=O)[O-],,15.3%,
O=C(Nc1ccc(NC(=O)c2ccccc2Cl)nc1)c1ccco1,"3.55 µM [falling, partial curve]",-3.95%,
O=C(N/C(=C/C=C/c1ccccc1)C(=O)N1CCOCC1)c1ccccc1Br,,-6.61%,"6.51 µM [rising, single point]"
CCOC(=O)c1ccc(NC(=S)NC(=O)COc2ccccc2)cc1,"23.1 µM [rising, single point]",21.6%,"0.13 µM [rising, full curve, poor fit]"

# A second format for part of the listing above:
SMILES | AC50 [1] | cell number change | AC50 [2]
CCOc1ccc(-n2cc(-c3ccccc3)c3c(=S)nc[nH]c32)cc1 | 0.13 µM [rising, full curve, poor fit] |  | 
C/C(=N\NC(=O)COc1ccccc1[N+](=O)[O-])c1cccc(NC(=O)c2ccncc2)c1 | 10.3 µM [falling, partial curve] | -46.1% | 13 µM [falling, partial curve]
O=c1oc2ccccc2cc1-c1nnc(-c2cccc(Br)c2)o1 |  | -1.42% | 
COCc1nc(-c2ccc(-c3ccccc3)nc2OC)no1 | 10.3 µM [falling, partial curve, poor fit] |  | 
O=C(Nc1ccc(NC(=O)c2ccccc2Cl)nc1)c1ccco1 | 3.55 µM [falling, partial curve] | -3.95% | 
O=C(N/C(=C/C=C/c1ccccc1)C(=O)N1CCOCC1)c1ccccc1Br |  | -6.61% | 6.51 µM [rising, single point]
